Data reported in US20220267341A1, “SOLID FORMS OF TERT-BUTYL (S)-2((2S,3R)-1-AMINO-3-HYDROXY-1-OXOBU TAN-2-YL)-1-OXO-2, 5-DIAZASPIRO [3.4] OCTAN E-5-CARBOXYLATE AND METHODS OF PREPARING THEM” (NAUREX INC., priority 2019, published 2022).
Some of these results come from one statement about several compounds together.

Assay: Competitive slurry in mixtures of water and isopropanol
Assay type: physicochemical
Details: 25° C.
Procedure: Competitive slurry in mixtures of water and isopropanol indicates the phase boundary between the crystalline Form I and crystalline Form II is between water activity of 0.66-0.78 at 25° C. At water activity above 0.78, crystalline Form II is the stable form, whereas at water activity below 0.66, crystalline Form I is the stable form

C[C@@H](O)[C@@H](C(N)=O)N1C[C@@]2(CCCN2C(=O)OC(C)(C)C)C1=O [crystalline Form I of Compound A, tert-butyl (S)-2-((2S,3R)-1-amino-3-hydroxy-1-oxobutan-2-yl)-1-oxo-2,5-diazaspiro[3.4]octane-5-carboxylate]
phase boundary between crystalline Form I and crystalline Form II (water activity): 0.66-0.78
